Record: PubChem BioAssay AID1259272 (Sanger Institute, 2017)
This is one part, drawn at random, of 794 reagents. Of all reagents, 7 (0.88%) got an active call. 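Essential calls reflect knock-down without drug only, not synergy with drugs; drug exposure length not given.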 Viability is capped at 1. The record does not give: the amount of reagent, the time to read-out.

- Purpose: 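Kinome-wide siRNA search for genes whose silencing boosts targeted drug effects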 (primary screen)
- Cells: SW1116 human colorectal cancer cells
- Reagents: siRNA pool against human genes
- Treatment: anchor drugs BYL719 (1 µM), cetuximab (5 µg/ml) or trametinib (10 nM), or DMSO vehicle; exposure length not given
- Measured: 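Cell survival as a fraction of wells given a non-targeting pool, averaged over replicates; robust z-score without drug; synergy score for each of BYL719, cetuximab and trametinib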
- Reading the numbers: viability z-score, no drug: higher = more cells remaining; strongly negative means essential gene; viability, no drug: higher = more viable cells; synergy score with BYL719 and synergy score with cetuximab and synergy score with trametinib: higher = stronger synthetic-lethal synergy with the drug
- Rule for the call: 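Called essential if the drug-free knock-down gives a robust viability z-score below -3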
- Calls: active = essential (knock-down alone); inactive = no change

| Gene | viability z-score, no drug | viability, no drug (fraction of control) | synergy score with BYL719 | synergy score with cetuximab | synergy score with trametinib | outcome |
| --- | --- | --- | --- | --- | --- | --- |
| BRAF | -0.177 | 0.891 | -0.159 | -0.0221 | 0.158 | inactive |
| OXSR1 | -0.431 | 0.864 | -0.17 | -0.201 | -0.0498 | inactive |
| CSF1R | -0.442 | 0.863 | -0.0406 | -0.0052 | 0.171 | inactive |
| CDK14 | -1.53 | 0.748 | -0.21 | 0.0136 | -0.0329 | inactive |
| ITPKC | 0.842 | 1 | -0.0788 | 0.0933 | -0.124 | inactive |
| TP53 | -1.36 | 0.765 | -0.0186 | 0.094 | 0.152 | inactive |
| BRD2 | 0.842 | 1 | -0.0199 | -0.0474 | 0.0238 | inactive |
| TWF1 | 0.842 | 1 | 0.0214 | 0.0272 | 0.225 | inactive |
| GRK1 | 0.842 | 1 | -0.0354 | 0.109 | -0.043 | inactive |
| ADCK1 | 0.175 | 0.929 | -0.144 | 0.0552 | 0.0497 | inactive |
| UCK2 | -1.7 | 0.729 | -0.217 | -0.22 | -0.195 | inactive |
| PIK3R2 | 0.842 | 1 | -0.0788 | -0.0757 | 0.0983 | inactive |
| AKT2 | -0.0266 | 0.907 | -0.147 | 0.105 | 0.146 | inactive |
| CTNNB1 | 0.308 | 0.943 | -0.131 | 0.0389 | 0.00892 | inactive |
| CDADC1 | -0.557 | 0.851 | -0.102 | -0.163 | 0.0277 | inactive |
| CLK3 | -0.193 | 0.89 | -0.153 | 0.0113 | 0.157 | inactive |
| PDK4 | -0.129 | 0.897 | -0.0466 | 0.0655 | 0.0302 | inactive |
| MAGI3 | 0.842 | 1 | 0.073 | 0.117 | 0.12 | inactive |
| PIK3C3 | 0.842 | 1 | 0.00888 | 0.00414 | 0.142 | inactive |
| CHKB | -0.948 | 0.809 | -0.174 | -0.23 | -0.0961 | inactive |
| STK24 | 0.343 | 0.947 | -0.103 | -0.0124 | 0.0513 | inactive |
| PRKCD | 0.0239 | 0.913 | 0.171 | 0.132 | 0.0127 | inactive |
| COASY | -2.51 | 0.642 | -0.0635 | -0.104 | -0.0326 | inactive |
| SRMS | -0.959 | 0.808 | 0.0848 | 0.0491 | 0.101 | inactive |
| MARK1 | 0.842 | 1 | 0.0433 | 0.212 | -0.024 | inactive |
| WIPF1 | -0.196 | 0.889 | -0.00863 | 0.0459 | 0.0829 | inactive |
| AK3 | -0.642 | 0.842 | -0.119 | -0.118 | -0.0933 | inactive |
| RAD21 | 0.842 | 1 | -0.0788 | -0.0757 | -0.275 | inactive |
| ACVR2A | 0.12 | 0.923 | -0.1 | -0.0873 | -0.0262 | inactive |
| PKN3 | -0.0969 | 0.9 | -0.171 | 0.0138 | 0.141 | inactive |
| PTK2B | -0.627 | 0.844 | -0.127 | -0.0108 | 0.00301 | inactive |
| ALDH18A1 | 0.842 | 1 | -0.0718 | -0.0324 | -0.0656 | inactive |
| DIS3 | 0.82 | 0.998 | 0.054 | 0.152 | 0.0439 | inactive |
| STK10 | -0.38 | 0.87 | 0.0377 | 0.0888 | 0.148 | inactive |
| MAP4K1 | -0.244 | 0.884 | -0.00696 | 0.0601 | -0.035 | inactive |
| PRPS2 | 0.686 | 0.983 | 0.0204 | -0.00303 | 0.00119 | inactive |
| UCKL1 | -0.288 | 0.88 | -0.154 | -0.0933 | -0.0723 | inactive |
| RPS6KA5 | -1.7 | 0.729 | -0.206 | -0.173 | 0.139 | inactive |
| CSNK1A1L | -0.178 | 0.891 | -0.169 | -0.126 | -0.0587 | inactive |
| MINK1 | 0.634 | 0.978 | 0.0792 | 0.126 | 0.15 | inactive |
| MAP2K2 | 0.842 | 1 | 0.124 | -0.0722 | -0.0283 | inactive |
| SNRK | 0.842 | 1 | 0.16 | 0.205 | 0.0833 | inactive |
| MATK | 0.842 | 1 | 0.0815 | 0.145 | 0.171 | inactive |
| TBCK | 0.842 | 1 | -0.0686 | 0.0472 | 0.0607 | inactive |
| GRK5 | 0.842 | 1 | -0.0504 | 0.068 | 0.185 | inactive |
| PTK7 | -2.29 | 0.666 | -0.15 | -0.0555 | -0.0229 | inactive |
| SRPK3 | 0.842 | 1 | 0.0476 | -0.0757 | 0.0675 | inactive |
| CDK2 | 0.842 | 1 | 0.0835 | -0.0757 | 0.00443 | inactive |
| CLK1 | 0.665 | 0.981 | -0.0411 | -0.0394 | -0.0186 | inactive |
| CSNK1G1 | -0.0626 | 0.904 | -0.11 | -0.0324 | 0.0094 | inactive |
| CDK15 | 0.842 | 1 | -0.0417 | -0.024 | -0.106 | inactive |
| TCF7L2 | 0.842 | 1 | -0.00504 | 0.109 | -0.199 | inactive |

Taken from above:
Result for AK3 under “synergy score with cetuximab”: -0.118
Entry of COASY in “viability, no drug (fraction of control)”: 0.642
For “viability z-score, no drug”, TWF1 reads 0.842
For “outcome”, TBCK shows inactive
